Among the data in PubChem BioAssay AID493014 (National Center for Advancing Translational Sciences (NCATS), 2011) are AC50 values, retold here.

The AC50 is the concentration at which the activity in the assay is half-maximal.

Several values for one entry are separate records, joined by “and”; a condition that tells them apart may be missing. Identical values can stand only once. The list shows a part of the results. Shown are side measurements of this screen, not its main read-out; they come without a call. Most of these compounds were active or inconclusive in the main read-out, so they are no random draw. Words in brackets tell the shape of the fitted curve; partial curves, single points and poor fits give uncertain potencies.

The assay in a line: qHTS Assay to Find Inhibitors of Chronic Active B-Cell Receptor Signaling. The settings on record: ABC-DLBCL IkBa-CBG/CBR reporter, luminescence ratio (green luciferase fused to IkBa over red control in TMD8 lymphoma cells), 4 h. In a few lines:
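Concentration-response series (up to 46 uM) were applied to TMD8 dual-reporter cells for 4 h at 37C with doxycycline. Green/red ratio, after filter-overlap correction, defined %Activity; red signal alone was normalised to basal cells and zero luminescence.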
For orientation: In qHTS, concentration-response curves come from the screen itself.

[1] abbreviates: measured here: CBR red luminescence, cell number.
The mark [2] stands for this setting: measured here: IkBa-CBG green luminescence.

For the compound `O=C1N=C(N2CCOCC2)S/C1=C\C=C/c1ccccc1`, under setting [1], the AC50 is 5.01 µM [falling, partial curve].
Same read-out and setting: next, `O=C(/C=C/c1cccs1)Nc1nncs1`: 25.1 µM [falling, single point].
The same measure, in the same setting: as for `O=C1[C@@H](Oc2ccccc2)[C@@H](c2cnc3ccccc3c2)N1c1ccccc1`, the figure is 1.16 µM [falling, partial curve, poor fit].
On the same count and under the same terms, next, `CCc1ccc(N2CCN(C(=O)c3ccc4c(c3)OCO4)CC2)cc1`: 3.55 µM [rising, full curve, poor fit].
Take `COc1cccc(N2CCN(C(=O)c3ccc(CS(=O)c4ccc(Cl)cc4)o3)CC2)c1` (configuration not stated): the AC50 is, setting by setting: under setting [1], 22.4 µM [rising, single point]; under setting [2], 12.6 µM [falling, partial curve].
Consider `Cc1c(Cc2ccccc2)c(=O)n2c([nH]c3ccccc32)c1C#N`, for which the AC50 under setting [1] is 14.1 µM [falling, single point].
On to `Cc1cc(C)cc(CC2CC(=O)N(c3nc(C)cc(C)n3)C2=O)c1` (configuration not stated), for which the AC50 under setting [1] was 5.62 µM [rising, single point].
On the same count and under the same terms, next, `OC(COCc1ccco1)CN1CCN(c2ccccc2)CC1` (configuration not stated): 6.51 µM [rising, partial curve, poor fit].
Same read-out and setting: next, `COc1ccc(OC)c(NC(=O)CNC(=O)c2ccc([N+](=O)[O-])cc2)c1`: 25.1 µM [rising, single point]; `COc1cc(C(=O)NCC2CCCO2)ccc1OCc1c(C)noc1C` (configuration not stated): 14.1 µM [rising, partial curve, poor fit].
The same measure, in the same setting: as for `COc1ccccc1NC(=O)Nc1nc(CC(=O)Nc2ccccc2F)cs1`, the figure is 0.461 µM [rising, full curve, poor fit].
For `COC(=O)[C@@H]1CCCN1Cc1nc(Cc2ccc(OC)c(OC)c2)no1`, the AC50 under setting [1] is 2 µM [rising, full curve, poor fit].
On the same count and under the same terms, next, `Cc1ccc(NC(=O)Nc2cnc3ccccc3c2)cc1`: 12.6 µM [falling, partial curve]; `N=C1S/C(=C\c2ccc(-c3ccccc3C(=O)O)o2)C(=O)N1c1ccc2c(c1)OCO2`: 1.78 µM [falling, full curve, poor fit].
On the same count and under the same terms, as for `Brc1ccc(CNc2cc3c(cc2Br)OCCO3)cc1`, the figure is 35.5 µM [rising, single point]; as for `CCOC(=O)c1c(N2C(=O)CC(Sc3ccccc3C(=O)O)C2=O)sc2c1CCCC2` (configuration not stated), 11.2 µM [falling, partial curve, poor fit].
Turning to `O=C(Nc1nnc(COc2ccccc2)s1)C1CCN(S(=O)(=O)c2ccc(Cl)cc2)CC1`, the AC50 under setting [1] is 2.59 µM [falling, single point].
As to `ClC1(Cl)CC1CSc1nc2ccccc2[nH]1` (configuration not stated), under setting [1], the AC50 is 6.31 µM [rising, partial curve, poor fit].
For the compound `CC(C)(C)c1cc(=O)[nH]c(SCc2ccccc2)n1`, the AC50 under setting [1] was 20 µM [falling, partial curve, poor fit].
Same read-out and setting: as for `COC(=O)c1cc(NC(=O)c2cc3ccccc3o2)cc(C(=O)OC)c1`, the figure is 2.82 µM [rising, full curve]; as for `COc1ccc(C2=C(CN(C)C)C(c3ccccc3)c3ccccc3O2)cc1` (configuration not stated), 2 µM [falling, partial curve, poor fit] and 32.6 µM [falling, single point].
On the same count and under the same terms, as for `Nc1nc(N)nc(-c2cccc(Cl)c2Cl)n1`, the figure is 32.6 µM [falling, single point]; as for `Fc1ccc(F)c(C2=NNC(=Nc3ccccc3F)SC2)c1`, 16.4 µM [falling, partial curve].
For `O=C(O)[C@H]1CCCC[C@H]1C(=O)Nc1ccc(Nc2ccccc2)cc1`, the AC50 under setting [1] is 29.1 µM [rising, single point].
The same measure, in the same setting: as for `COc1ccc(C)cc1NC(=O)CSc1nc(=O)n(Cc2ccccn2)c2c1CCC2`, the figure is 35.5 µM [falling, single point]; as for `CCC(=O)Nc1ccc(NC(=S)NC(=O)c2cc3ccccc3o2)cc1`, 3.26 µM [rising, full curve, poor fit].
On the same count and under the same terms, next, `O=C(CC1Sc2ccccc2NC1=O)Nc1cccc(C(=O)O)c1` (configuration not stated): 20.6 µM [falling, partial curve].
Still for that read-out and setting: as for `Cc1cc(OC(=O)c2ccc(S(=O)(=O)N(C)C)cc2)c([N+](=O)[O-])c(=O)[nH]1`, the figure is 35.5 µM [rising, partial curve, poor fit]; as for `COc1ccccc1C(=O)NC(CCSC)C(=O)NCc1ccccn1` (configuration not stated), 18.4 µM [rising, single point]; as for `CCN(CC)c1ccc(/C=N/NC(=O)c2ccc3nc[nH]c3c2)c(O)c1`, 35.5 µM [falling, single point].
As to `NC(C(=O)O)C(c1ccccc1)C(F)F` (configuration not stated), the AC50 under setting [1] is 2 µM [falling, full curve, poor fit].
Consider `COc1ccc(C2CC(c3c(O)cc(C)oc3=O)=NCCS2)c(OC)c1` (configuration not stated), for which the AC50 runs as follows: under setting [1], 25.1 µM [rising, partial curve]; under setting [2], 20 µM [falling, partial curve].
In the case of `Cc1ccc(N(C(=O)CCl)C(C(=O)NC2CCCCC2)c2cccnc2)cc1C` (configuration not stated), the AC50 under setting [1] is 6.51 µM [falling, partial curve, poor fit].
Consider `Cn1nnc(NC(=S)NC(=O)c2ccccc2)n1`, for which, under setting [1], the AC50 is 10 µM [falling, partial curve, poor fit].
Still for that read-out and setting: next, `CCCc1cc(NCCCCO)n2c(nc3ccccc32)c1C#N`: 25.1 µM [falling, single point]; `Fc1ccc(CNCc2ccc(Br)cc2)cc1`: 1.3 µM [rising, full curve, poor fit]; `Cc1cc(Cl)ccc1N=Cc1c(O)n(C)c(=O)n(C)c1=O`: 4.47 µM [rising, partial curve, poor fit].
In the case of `CCCCS(=O)(=O)N1CCN(S(=O)(=O)c2ccc(Cl)s2)CC1`, the half-maximal activity concentration (AC50) under setting [1] was 31.6 µM [rising, single point].
As to `O=C(CSc1nnc(-c2ccccc2F)n1C1CC1)Nc1cccnc1Cl`, under setting [1], the AC50 is 13 µM [falling, partial curve, poor fit].
The same measure, in the same setting: next, `COc1ccccc1NC(=O)c1cc(C)oc1C`: 15.8 µM [rising, single point]; `OCCNc1c2ccccc2nc2ccccc12`: 35.5 µM [falling, single point]; `Cc1nn(CC(=O)Nc2ccc(S(=O)(=O)N(C)C)cc2)c(C)c1[N+](=O)[O-]`: 0.164 µM [falling, full curve, poor fit].
The same measure, in the same setting: as for `CN(C)c1ccc(C(=O)/C=C/c2ccco2)cc1`, the figure is 29.1 µM [falling, single point]; as for `O=C(CSc1nnc(-c2ccc(C(F)(F)F)cn2)o1)Nc1cccc(Cl)c1`, 0.562 µM [rising, full curve, poor fit].
As to `CCCC(=O)N1CC(=O)Nc2ccc(F)cc2C1c1ccccc1` (configuration not stated), the AC50 under setting [1] is 16.4 µM [rising, single point].
`O=C(Nc1nc2ccc(C(=O)N3CCCCC3)cc2s1)C1CCCCC1`: the AC50 under setting [1] was 0.891 µM [falling, full curve, poor fit].
Same read-out and setting: as for `CCc1ccccc1NC(=O)c1cc(=O)c2ccccc2o1`, the figure is 35.5 µM [falling, partial curve, poor fit]; as for `COc1ccc(Oc2nc(-c3ccccn3)ncc2OC)cc1`, 0.631 µM [rising, full curve, poor fit]; as for `C[C@]12C=CC(=O)C=C1CC[C@@H]1[C@@H]2[C@@H](O)C[C@@]2(C)[C@H]1CC[C@]2(O)C(=O)COC(=O)CCC(=O)NCCc1ccc(O)cc1`, 7.08 µM [rising, partial curve, poor fit].
Take `O=C(N/N=C/c1ccccc1)C(O)c1ccccc1` (configuration not stated): under setting [1], the concentration at half-maximal activity (AC50) was 11.2 µM [falling, partial curve].
Turning to `O=C(NCc1cccnc1)c1ccc2c(c1)C(=O)N(Cc1ccccc1)C2=O`, under setting [1], the AC50 was 2 µM [rising, partial curve].
For `COc1ccc(CCN/C=C2/CC(=O)NC2=O)cc1OC`, the AC50 under setting [1] is 29.1 µM [falling, single point].
For `CCC(CC)C(=O)Nc1nnc(-c2cccs2)s1`, the AC50 under setting [1] is 2.82 µM [rising, partial curve, poor fit].
Same read-out and setting: as for `CCOc1ccccc1NC(=O)/C=C/c1ccc(S(=O)(=O)N2CCOCC2)cc1`, the figure is 1.84 µM [falling, full curve].
Same read-out and setting: as for `CCOC(=O)CN1C(=O)S/C(=C\c2ccc(-c3ccc(C(=O)O)c(Cl)c3)o2)C1=O`, the figure is 35.5 µM [falling, single point].
As for `COc1cccc(S(=O)(=O)NCc2ccc(C(=O)Nc3ccc(C)cc3)cc2)c1`, under setting [1], the AC50 was 29.1 µM [rising, single point].
Consider `O=[N+]([O-])c1ccc(O)c(/C=N/Nc2nc3ccccc3[nH]2)c1`, for which, under setting [1], the AC50 is 0.0517 µM [falling, full curve].
Still for that read-out and setting: next, `CCOCCCNC(=O)C(=O)Nc1c2c(nn1-c1ccc(OC)cc1)CSC2`: 31.6 µM [rising, single point]; `CC(Nc1nc2ccccc2n2cnnc12)c1ccccc1` (configuration not stated): 10 µM [falling, partial curve, poor fit].
Turning to `Cc1nc2cc(-c3ccccc3)nn2c(C)c1CCC(=O)NC(C)c1ccc2c(c1)OCCO2` (configuration not stated), under setting [1], the AC50 was 14.6 µM [falling, partial curve].
For the compound `N#CCCn1c(C2CCCCC2)nc2ccccc21`, under setting [1], the AC50 is 13 µM [rising, partial curve, poor fit].
Still for that read-out and setting: as for `CC(C)CCC(C)N=Cc1c(O)n(Cc2ccccc2)c(=O)c2ccccc12` (configuration not stated), the figure is 29.1 µM [rising, single point]; as for `N#C/C(=C/c1cccc([N+](=O)[O-])c1)C(=O)Nc1ccccc1O`, 10 µM [falling, partial curve].
With `COc1ccccc1NC(=O)c1c(N=Cc2c(O)ccc3ccccc23)cnn1C`, the AC50 under setting [1] was 12.6 µM [rising, partial curve] and the AC50 under setting [2] was 10 µM [falling, partial curve].
